These are yes or no findings as the source states them, for the method shown. In cells and extracts the contact can be indirect. Some results given as binding are weak or reduced against the parent protein; the word gives no strength. Sequences can lack the tags named with a protein.
T1: HAI-2 (hepatocyte growth factor activator inhibitor-2) with c-Myc and His tags, overexpressed in N2 cells (human), O43291
T1 chain: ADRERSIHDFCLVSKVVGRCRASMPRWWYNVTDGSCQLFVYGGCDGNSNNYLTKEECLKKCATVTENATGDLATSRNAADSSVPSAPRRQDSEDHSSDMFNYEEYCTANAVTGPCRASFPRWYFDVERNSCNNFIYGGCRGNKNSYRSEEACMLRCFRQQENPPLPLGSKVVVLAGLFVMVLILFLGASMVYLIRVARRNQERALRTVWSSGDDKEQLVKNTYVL

T2: matriptase with a V5 tag, overexpressed in HEK293T cells (human), Q9Y5Y6
T2 chain: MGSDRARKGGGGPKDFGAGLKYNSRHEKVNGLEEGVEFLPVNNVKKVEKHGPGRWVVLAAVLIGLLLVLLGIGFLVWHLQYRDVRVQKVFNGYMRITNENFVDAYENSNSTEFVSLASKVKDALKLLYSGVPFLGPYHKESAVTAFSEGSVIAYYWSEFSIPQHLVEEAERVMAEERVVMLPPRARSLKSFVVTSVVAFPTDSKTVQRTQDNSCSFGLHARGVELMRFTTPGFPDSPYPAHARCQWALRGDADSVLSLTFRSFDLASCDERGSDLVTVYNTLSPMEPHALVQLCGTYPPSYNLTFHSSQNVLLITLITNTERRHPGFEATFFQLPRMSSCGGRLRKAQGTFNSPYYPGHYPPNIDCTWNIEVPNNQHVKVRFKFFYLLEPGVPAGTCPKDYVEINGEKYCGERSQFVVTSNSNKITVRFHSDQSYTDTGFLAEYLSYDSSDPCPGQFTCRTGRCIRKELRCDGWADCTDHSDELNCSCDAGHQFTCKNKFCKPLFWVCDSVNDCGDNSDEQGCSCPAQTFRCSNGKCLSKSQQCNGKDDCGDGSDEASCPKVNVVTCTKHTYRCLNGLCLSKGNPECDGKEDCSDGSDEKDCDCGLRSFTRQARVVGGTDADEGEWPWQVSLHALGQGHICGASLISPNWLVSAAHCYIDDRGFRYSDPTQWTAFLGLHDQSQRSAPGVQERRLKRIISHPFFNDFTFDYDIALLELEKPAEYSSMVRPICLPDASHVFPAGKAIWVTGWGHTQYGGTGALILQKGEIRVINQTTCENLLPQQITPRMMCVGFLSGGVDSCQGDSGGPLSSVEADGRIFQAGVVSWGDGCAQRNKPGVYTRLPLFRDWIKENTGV


Key:
[1] = target: T1, HAI-2 (hepatocyte growth factor …); assay: co-IP; HAI-2 (c-Myc tag) immunoprecipitated with anti-c-Myc mAb and protein G magnetic beads from lysates of HAI-2-overexpressing N2 cells (0.5% NP-40, 150 mM NaCl, 50 mM Tris pH 7.0); mouse IgG as control; blot with anti-matriptase and anti-HAI-2 pAbs; conditions: remark: other sources report otherwise
[2] = target: T2, matriptase with a V5 tag, overexpressed …; assay: co-IP; matriptase (V5 tag) immunoprecipitated with anti-V5 mAb and protein G magnetic beads from lysates of HEK293T cells transiently transfected with matriptase and HAI-2 plasmids (0.5% NP-40, 150 mM NaCl, 50 mM Tris pH 7.0); blot with anti-V5 mAb and anti-HAI-2 pAb; conditions: remark: other sources report otherwise

Binder | binding [1] | binding [2]
matriptase, endogenous in N2 cells, Q9Y5Y6 1-855 (protein) MGSDRARKGGGGPKDFGAGLKYNSRHEKVNGLEEGVEFLPVNNVKKVEKHGPGRWVVLAAVLIGLLLVLLGIGFLVWHLQYRDVRVQKVFNGYMRITNENFVDAYENSNSTEFVSLASKVKDALKLLYSGVPFLGPYHKESAVTAFSEGSVIAYYWSEFSIPQHLVEEAERVMAEERVVMLPPRARSLKSFVVTSVVAFPTDSKTVQRTQDNSCSFGLHARGVELMRFTTPGFPDSPYPAHARCQWALRGDADSVLSLTFRSFDLASCDERGSDLVTVYNTLSPMEPHALVQLCGTYPPSYNLTFHSSQNVLLITLITNTERRHPGFEATFFQLPRMSSCGGRLRKAQGTFNSPYYPGHYPPNIDCTWNIEVPNNQHVKVRFKFFYLLEPGVPAGTCPKDYVEINGEKYCGERSQFVVTSNSNKITVRFHSDQSYTDTGFLAEYLSYDSSDPCPGQFTCRTGRCIRKELRCDGWADCTDHSDELNCSCDAGHQFTCKNKFCKPLFWVCDSVNDCGDNSDEQGCSCPAQTFRCSNGKCLSKSQQCNGKDDCGDGSDEASCPKVNVVTCTKHTYRCLNGLCLSKGNPECDGKEDCSDGSDEKDCDCGLRSFTRQARVVGGTDADEGEWPWQVSLHALGQGHICGASLISPNWLVSAAHCYIDDRGFRYSDPTQWTAFLGLHDQSQRSAPGVQERRLKRIISHPFFNDFTFDYDIALLELEKPAEYSSMVRPICLPDASHVFPAGKAIWVTGWGHTQYGGTGALILQKGEIRVINQTTCENLLPQQITPRMMCVGFLSGGVDSCQGDSGGPLSSVEADGRIFQAGVVSWGDGCAQRNKPGVYTRLPLFRDWIKENTGV | binds | 
HAI-2 overexpressed in HEK293T cells, O43291 28-252 (protein) ADRERSIHDFCLVSKVVGRCRASMPRWWYNVTDGSCQLFVYGGCDGNSNNYLTKEECLKKCATVTENATGDLATSRNAADSSVPSAPRRQDSEDHSSDMFNYEEYCTANAVTGPCRASFPRWYFDVERNSCNNFIYGGCRGNKNSYRSEEACMLRCFRQQENPPLPLGSKVVVLAGLFVMVLILFLGASMVYLIRVARRNQERALRTVWSSGDDKEQLVKNTYVL |  | binds
